{
  "source": "patent US7973011B2",
  "about": "“Blockade of gamma-secretase activity to promote myelination by oligodendrocytes” (The Board of Trustees of the Leland Stanford Junior …, priority 2006, dated 2011)",
  "origin": "cited, not measured here",
  "molecular_target": "γ-secretase active site (Homo sapiens, UniProt P49768)",
  "conditions": "cited from earlier work",
  "note": "At least one structure is not confirmed: it was looked up by name or label, or the drawing left a doubt.",
  "data": [
    {"smiles": "CCC(C)C(NC(=O)C(CCCCNC(=O)OC(C)(C)C)NC(=O)OC(C)(C)C)C(=O)NC(CC(C)C)C1CO1", "note": "(stereo not shown) [Epoxide]", "values": [
      {"measurement": "Displacement", "value": "YES time-dependent"}
    ]}
  ]
}
